Some of the results follow. The main result of the screen is listed elsewhere. These columns were measured beside it and carry no call. Most of these compounds were active or inconclusive in the main read-out, so they are no random draw. The note in brackets gives the kind of curve behind each potency; many fits are weak.

The assay is described as follows: IkB Signaling. The following applies: ABC-DLBCL IkBa-CBG/CBR dual luciferase ratio (green luciferase fused to IkBa over red control in OCI-Ly3 lymphoma cells), 4 h; measured here: control luc red channel unless noted. A digest of the protocol:
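Luminescence ratio of IκBα-fused green versus native red beetle luciferase in OCI-Ly3 cells, 4 h post-doxycycline with compound; red signal alone, scaled from basal (0%) to zero light (-100%), flagged nonspecific or cytotoxic effects.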
For orientation: AC50 means the concentration at which the activity in the assay is half-maximal. Take `COc1ccc(CCN2C(=O)N(c3ccc(C)cc3)C(=O)C2CC(=O)Nc2ccc(F)cc2)cc1` (stereo not drawn): the AC50 was 12.6 µM [falling, partial curve].
With `COCc1cc(=O)n2[nH]c(-c3cccc(Br)c3)cc2n1`, the AC50 was 3.16 µM [falling, full curve].
`COc1ccc(-c2noc(CCCC(=O)O)n2)cc1`: the AC50 is 0.501 µM [falling, full curve].
As for `COc1ccccc1OCc1ccc(C(=O)N2CCN3CCCC3C2)cc1` (stereo not drawn), the AC50 was 39.8 µM [falling, single point].
To `CCn1c(SCC(=O)N2c3ccccc3Sc3ccccc32)nnc1-c1ccco1` belongs 15.8 µM [falling, partial curve]; to `CCn1cnc2cc(NCc3cccc(OC)c3O)ccc21`, 31.6 µM [rising, partial curve] [measured here: IkB-luc green channel].
To `Cc1cccc(NC(=O)C(=O)NCCc2sc(-c3ccccc3)nc2C)c1C` belongs 3.16 µM [rising, full curve, poor fit]; to `COc1ccc(-c2cn3c(n2)sc2cc(C(=O)NC4CCCCCC4)ccc23)cc1`, 20 µM [falling, single point].
Under `CC(CNC(=O)c1cc(-c2ccccc2)n[nH]1)c1ccccc1` (stereo not drawn) stands 31.6 µM [falling, partial curve]; under `O=C(c1ccc(F)cc1)N1CCC(c2nc(-c3ccc(S(=O)(=O)N4CCCC4)cc3)no2)CC1`, 7.94 µM [falling, partial curve].
With `COc1ccccc1N(CC(=O)Nc1ccc2c(c1)OCO2)S(=O)(=O)c1ccc(C)cc1`, the half-maximal activity concentration (AC50) is 15.8 µM [falling, partial curve].
To `O=C(Cn1cnc2onc(-c3ccc(F)cc3)c2c1=O)Nc1ccc(F)c(Cl)c1` belongs 31.6 µM [falling, single point]; to `O=C(CN1c2ccccc2S(=O)(=O)c2ccccc21)Nc1ccccc1Cl`, 12.6 µM [falling, partial curve].
As for `Cn1c(C(C#N)C(=O)c2sc3ccccc3c2Cl)nc2ccccc21` (stereo not drawn), the AC50 was 25.1 µM [rising, partial curve] [measured here: IkB-luc green channel].
Under `CCOc1ccc(S(=O)(=O)c2cn(Cc3ccccc3C)c3ccc(OC)cc3c2=O)cc1` stands 1 µM [falling, full curve, poor fit].
Under `O=C(O)CCC(=O)Nc1nc(-c2ccccc2)cs1` stands 15.8 µM [falling, partial curve]; under `O=C(c1ccc2c(c1)N(Cc1c(F)cccc1Cl)C(=O)c1ccccc1S2)N1CCOCC1`, 25.1 µM [falling, partial curve]; under `CCOc1cccc(C2c3[nH]c4ccccc4c3CCN2C(=O)CSCc2ccc(F)cc2)c1` (stereo not drawn), 1.26 µM [falling, full curve].
Regarding `Cc1ccc2c(c1)c(CC(=O)Nc1ccc(C)c(F)c1)c(C(=O)O)n2C`, the AC50 is 31.6 µM [falling, partial curve].
Under `Cc1ccc2nc(COc3ccccc3NC(=O)c3ccccc3F)cc(=O)n2c1` stands 0.0631 µM [falling, full curve, poor fit]; under `Fc1ccc(-c2nn3c(C4COc5ccccc5O4)nnc3s2)cc1` (stereo not drawn), 3.98 µM [falling, partial curve]; under `NC(=O)Cn1c(=O)n(CCCCCC(=O)NCc2ccc(F)cc2)c(=O)c2sccc21`, 3.98 µM [rising, full curve, poor fit].
Regarding `COc1ccc(-c2c3c(=O)n(C)c(=O)n(C)c3c3n2-c2ccccc2NC3c2ccc(O)cc2O)cc1` (stereo not drawn), the AC50 was 10 µM [falling, partial curve].
Turning to `Cc1cc(OCCCn2c(CCNC(=O)C3CCCCC3)nc3ccccc32)ccc1Cl`, the AC50 was 12.6 µM [falling, partial curve].
Under `COc1ccc(N(CC(=O)Nc2cccc(C(C)=O)c2)S(=O)(=O)c2ccccc2)c(OC)c1` stands 39.8 µM [falling, single point]; under `CCOc1ccc(C(=O)N(Cc2cc(OC)c(OC)c(OC)c2)c2ccccn2)cc1`, 7.94 µM [falling, partial curve]; under `CCOC(=O)C1=C(C)NC(=O)NC1c1cn(-c2ccccc2)nc1-c1ccc(OC(C)C)cc1` (stereo not drawn), 20 µM [falling, partial curve].
Under `Cc1nn(C)c2c1c(C(F)(F)F)cc(=O)n2C(C)C(=O)NCCc1ccccc1` (stereo not drawn) stands 25.1 µM [falling, partial curve]; under `O=C(Nc1nc2n(n1)C(c1ccc(Cl)cc1)C=C(c1ccccc1)N2)c1ccco1` (stereo not drawn), 20 µM [falling, single point].
Under `CCC(COC(=O)Nc1cccc(C)c1C)NC(=O)OCC(C)C` (stereo not drawn) stands 12.6 µM [falling, partial curve]; under `COc1ccc(CCNC(c2ccc(F)cc2)c2nnc(-c3ccccc3Cl)o2)cc1OC` (stereo not drawn), 25.1 µM [falling, partial curve]; under `Cc1cc(C)c(O)c(-c2cc(C(=O)Nc3ccc(S(=O)(=O)N4CCOCC4)cc3)[nH]n2)c1`, 6.31 µM [falling, full curve].
Consider `CC(C)c1nc2cc3ccccc3cc2[nH]1`, for which the concentration at half-maximal activity (AC50) was 25.1 µM [falling, single point].
To `CCCCCn1c(SCc2ccncc2)nc2cc(C(=O)NCc3ccco3)ccc2c1=O` belongs 7.94 µM [falling, partial curve]; to `Cc1cc(C)c2c(=O)c3c(oc2c1)C(=O)N(Cc1ccc(F)cc1)C3c1cccc(O)c1` (stereo not drawn), 15.8 µM [falling, partial curve]; to `Cc1ccc(CNC(=O)CN(c2ccc(C(C)C)cc2)S(=O)(=O)c2c(C)n[nH]c2C)cc1`, 15.8 µM [falling, partial curve].
To `Cc1cc(OCCCCCNCCO)cc(C)c1Cl` belongs 39.8 µM [falling, single point].
To `O=C(COc1ccc(Cl)cc1)Nc1ccccc1C(=O)OCc1cc(=O)n2ccsc2n1` belongs 20 µM [falling, partial curve, poor fit]; to `CCCC(=O)NCC(c1ccc2c(c1)OCO2)N1CCOCC1` (stereo not drawn), 0.2 µM [falling, full curve].
Turning to `CSc1nccc(Nc2ccccc2)c1C#N`, the concentration at half-maximal activity (AC50) is 3.98 µM [rising, partial curve].
Under `O=C(Nc1ccc(SC(F)F)cc1)c1cc(-c2cccs2)on1` stands 12.6 µM [falling, partial curve]; under `COc1ccc(-c2cc3nc(-c4ccccc4)cc(N4CCC5(CC4)OCCO5)n3n2)cc1`, 6.31 µM [falling, partial curve].
Take `COc1ccc(OC)c(NC(=O)CSc2nc(-c3ccccc3C)nc3cc(=O)[nH]n23)c1`: the AC50 was 31.6 µM [falling, single point].
To `CC(=O)c1cccc(NC(=O)CCCN2C(=O)COc3ccc(C)cc32)c1` belongs 39.8 µM [falling, partial curve]; to `CCOc1ccc(C(=O)Nc2nnc(S(=O)(=O)N(CC)c3ccccc3C)s2)cc1`, 15.8 µM [rising, partial curve].
To `O=C(NCCc1ccccc1)c1ccc2c(c1)CCN2S(=O)(=O)c1ccc(Br)cc1` belongs 7.94 µM [falling, full curve, poor fit].
To `COc1ccc(N2CC(c3nc(-c4cc(OC)c(OC)c(OC)c4)no3)CC2=O)cc1Cl` (stereo not drawn) belongs 12.6 µM [falling, partial curve]; to `CCC(=O)N1CCCc2cc(S(=O)(=O)N3CCC(C(=O)Nc4ccc(F)c(F)c4)CC3)ccc21`, 1 µM [rising, full curve]; to `COC(=O)c1ccccc1NC(=O)CSc1nc(-c2ccccc2)cc(C(F)(F)F)n1`, 39.8 µM [falling, single point].
As for `COc1ccccc1CNC(=O)CCc1c(C)nc2cc(-c3ccccc3OC)nn2c1C`, the half-maximal activity concentration (AC50) is 3.98 µM [falling, partial curve].
Consider `Cc1ccc(NC(=O)CN2CCCN(Cc3ccccc3Cl)S2(=O)=O)c(C)c1`, for which the AC50 is 20 µM [falling, single point].
In the case of `c1ccc(CCc2nc(-c3ccccn3)no2)cc1`, the AC50 is 7.94 µM [falling, partial curve].
To `O=C(C1CCCN(S(=O)(=O)c2cccc3nonc23)C1)N1CCN(c2cccc(Cl)c2)CC1` (stereo not drawn) belongs 10 µM [falling, partial curve]; to `COc1cccc(/C=C/c2nc(C#N)c(N3CCCCC3)o2)c1`, 39.8 µM [falling, single point].
To `CSc1ccc(CCNC(=O)CCc2c(C)nc3c(-c4ccccc4)c(C)nn3c2C)cc1` belongs 12.6 µM [falling, partial curve].
To `COC(=O)c1ccc2c(=O)n(CCCCCC(=O)NCc3ccccc3)c(=O)[nH]c2c1` belongs 0.251 µM [falling, full curve]; to `CCn1cc(C2N3CC4(CC)CN2CC(CC)(C3)C4=O)c2ccccc21` (stereo not drawn), 25.1 µM [falling, partial curve].
On to `CCOC(=O)c1c(NC(=O)/C=C/c2ccc(OC)c(OC)c2)sc(C(C)=O)c1C`, for which the AC50 was 10 µM [rising, partial curve].
Under `O=C(Cc1cccs1)Nc1nc2ccccc2s1` stands 15.8 µM [falling, single point].
Under `N#CCCCSc1ncccc1-c1nc2ccccc2[nH]1` stands 0.1 µM [falling, full curve]; under `COc1ccc(NC(=O)C(=O)NCC(c2ccc3c(c2)OCO3)N2CCN(C)CC2)cc1` (stereo not drawn), 1.26 µM [falling, partial curve].
Under `CCOc1cc(CNC(=O)CCCn2c(=O)c3cccn3c3cccnc32)cc(OCC)c1OCC` stands 0.251 µM [rising, full curve]; under `COc1ccc(CCNC(=O)c2cc(Nc3cc(C)cc(C)c3)nc3ccccc23)cc1OC`, 12.6 µM [falling, partial curve].

These data come from PubChem BioAssay AID445 (National Center for Advancing Translational Sciences (NCATS), 2006).
